# In the supplement of paper PMC8728848:
# The list shows a part of the results.
# Key:
# Assay in all cases: glycan array binding signal (z-score within array); higher = stronger binding
# Conditions in all cases: glycan notation: IUPAC condensed, linker removed
# Gal(b1-3)Gal = target: Gal(b1-3)Gal
# In short: (§1)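 Arrays were curated from the Consortium for Functional Glycomics database, 3228 in total, and kept only where the protein sequence was available. Binding is expressed as a within-array Z-score. This score was averaged across arrays of the same protein sequence at different concentrations or buffers and across linkers, and negative values can be read as non-binding.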
# Gal(b1-3)Gal(b1-4)GlcNAc = target: Gal(b1-3)Gal(b1-4)GlcNAc
# In short: as §1
# Gal(b1-3)GalNAc = target: Gal(b1-3)GalNAc
# In short: as §1
# [1] = target: Gal(b1-3)GalNAc(a1-3)[Fuc(a1-2)]Gal(b1-4)Glc
# In short: as §1
# [2] = target: Gal(b1-3)GalNAc(a1-3)[Fuc(a1-2)]Gal(b1-4)GlcNAc
# In short: as §1
# Gal(b1-3)GalNAc(b1-3)Gal = target: Gal(b1-3)GalNAc(b1-3)Gal
# In short: as §1
# [3] = target: Gal(b1-3)GalNAc(b1-3)Gal(a1-4)Gal(b1-4)Glc
# In short: as §1
# [4] = target: Gal(b1-3)GalNAc(b1-4)Gal(b1-4)Glc
# In short: as §1
# [5] = target: Gal(b1-3)GalNAc(b1-4)[Neu5Ac(a2-3)]Gal(b1-4)Glc
# In short: as §1
# Gal(b1-3)GlcNAc = target: Gal(b1-3)GlcNAc
# In short: as §1
# [6] = target: Gal(b1-3)GlcNAc(a1-3)Gal(b1-4)GlcNAc
# In short: as §1
# [7] = target: Gal(b1-3)GlcNAc(a1-6)Gal(b1-4)GlcNAc
# In short: as §1
# Gal(b1-3)GlcNAc(b1-2)Man = target: Gal(b1-3)GlcNAc(b1-2)Man
# In short: as §1
# [8] = target: Gal(b1-3)GlcNAc(b1-2)Man(a1-3)[Gal(b1-3)GlcNAc(b1-2)Man(a1-6)]Man(b1-4)GlcNAc(b1-4)GlcNAc
# In short: as §1
# [9] = target: Gal(b1-3)GlcNAc(b1-2)Man(a1-3)[Gal(b1-3)GlcNAc(b1-2)Man(a1-6)]Man(b1-4)GlcNAc(b1-4)[Fuc(a1-6)]GlcNAc
# In short: as §1
# [10] = target: Gal(b1-3)GlcNAc(b1-2)Man(a1-3)[GlcNAc(b1-4)][Gal(b1-3)GlcNAc(b1-2)Man(a1-6)]Man(b1-4)GlcNAc(b1-4)GlcNAc
# In short: as §1
# [11] = target: Gal(b1-3)GlcNAc(b1-2)[Gal(b1-3)GlcNAc(b1-6)]Man(a1-6)[Gal(b1-3)GlcNAc(b1-2)Man(a1-3)]Man(b1-4)GlcNAc(b1-4)GlcNAc
# In short: as §1
# [12] = target: Gal(b1-3)GlcNAc(b1-3)Gal(b1-3)GlcNAc
# In short: as §1
# [13] = target: Gal(b1-3)GlcNAc(b1-3)Gal(b1-4)Glc
# In short: as §1
# [14] = target: Gal(b1-3)GlcNAc(b1-3)Gal(b1-4)GlcNAc
# In short: as §1
# [15] = target: Gal(b1-3)GlcNAc(b1-3)Gal(b1-4)GlcNAc(b1-2)Man(a1-3)[Gal(b1-3)GlcNAc(b1-3)Gal(b1-4)GlcNAc(b1-2)Man(a1-6)]Man(b1-4)GlcNAc(b1-4)GlcNAc
# In short: as §1
# [16] = target: Gal(b1-3)GlcNAc(b1-3)Gal(b1-4)GlcNAc(b1-2)[Gal(b1-3)GlcNAc(b1-3)Gal(b1-4)GlcNAc(b1-6)]Man(a1-6)[Gal(b1-3)GlcNAc(b1-3)Gal(b1-4)GlcNAc(b1-2)Man(a1-3)]Man(b1-4)GlcNAc(b1-4)[Fuc(a1-6)]GlcNAc
# In short: as §1
# [17] = target: Gal(b1-3)GlcNAc(b1-3)Gal(b1-4)GlcNAc(b1-3)Gal(b1-4)GlcNAc(b1-2)[Gal(b1-3)GlcNAc(b1-3)Gal(b1-4)GlcNAc(b1-3)Gal(b1-4)GlcNAc(b1-6)]Man(a1-6)[Gal(b1-3)GlcNAc(b1-3)Gal(b1-4)GlcNAc(b1-3)Gal(b1-4)GlcNAc(b1-2)Man(a1-3)]Man(b1-4)GlcNAc(b1-4)[Fuc(a1-6)]GlcNAc
# In short: as §1
# [18] = target: Gal(b1-3)GlcNAc(b1-3)Gal(b1-4)GlcNAc(b1-6)[Gal(b1-3)GlcNAc(b1-3)]Gal(b1-4)Glc
# In short: as §1
# [19] = target: Gal(b1-3)GlcNAc(b1-3)Gal(b1-4)[Fuc(a1-3)]GlcNAc
# In short: as §1
# [20] = target: Gal(b1-3)GlcNAc(b1-3)Gal(b1-4)[Fuc(a1-3)]GlcNAc(b1-6)[Gal(b1-3)GlcNAc(b1-3)]Gal(b1-4)Glc
# In short: as §1
# [21] = target: Gal(b1-3)GlcNAc(b1-3)GalNAc
# In short: as §1
# [22] = target: Gal(b1-3)GlcNAc(b1-6)Gal(b1-4)GlcNAc
# In short: as §1
# [23] = target: Gal(b1-3)GlcNAc(b1-6)GalNAc
# In short: as §1
# [24] = target: Gal(b1-3)GlcNAc(b1-6)[Gal(b1-3)]GalNAc
# In short: as §1
# Gal(b1-3)GlcNAc6S = target: Gal(b1-3)GlcNAc6S
# In short: as §1
# [25] = target: Gal(b1-3)[Fuc(a1-4)]GlcNAc
# In short: as §1
# [26] = target: Gal(b1-3)[Fuc(a1-4)]GlcNAc(b1-2)Man
# In short: as §1
# [27] = target: Gal(b1-3)[Fuc(a1-4)]GlcNAc(b1-2)Man(a1-3)[Gal(b1-3)[Fuc(a1-4)]GlcNAc(b1-2)Man(a1-6)]Man(b1-4)GlcNAc(b1-4)[Fuc(a1-6)]GlcNAc
# In short: as §1
# [28] = target: Gal(b1-3)[Fuc(a1-4)]GlcNAc(b1-3)Gal(b1-3)[Fuc(a1-4)]GlcNAc
# In short: as §1
# [29] = target: Gal(b1-3)[Fuc(a1-4)]GlcNAc(b1-3)Gal(b1-4)[Fuc(a1-3)]GlcNAc
# In short: as §1
# [30] = target: Gal(b1-3)[Fuc(a1-4)]GlcNAc(b1-6)GalNAc
# In short: as §1
# [31] = target: Gal(b1-3)[GlcNAc(b1-6)]GalNAc
# In short: as §1
# [32] = target: Gal(b1-3)[Neu5Ac(a2-6)]GalNAc
# In short: as §1
# [33] = target: Gal(b1-3)[Neu5Ac(a2-6)]GlcNAc(b1-4)Gal(b1-4)Glc
# In short: as §1
# [34] = target: Gal(b1-3)[Neu5Ac(b2-6)]GalNAc
# In short: as §1
# Gal(b1-4)Gal = target: Gal(b1-4)Gal
# In short: as §1
# [35] = target: Gal(b1-4)GalNAc(a1-3)[Fuc(a1-2)]Gal(b1-4)GlcNAc
# In short: as §1
# [36] = target: Gal(b1-4)GalNAc(b1-3)[Fuc(a1-2)]Gal(b1-4)GlcNAc
# In short: as §1
# Gal(b1-4)Glc = target: Gal(b1-4)Glc
# In short: as §1
binder,measurement,setting,value
Pbx2CASH domain (Cryptococcus neoformans) (protein) GIPGPNRLYRLSGPIIFTAADQEIATYGYPTGSERAVLRVEGRNTATAIQGDCRRCARVSVKNLVVDGNRKKLGRMRDFQLATGLVVLGGNEGQSIQNSWIKNPRGFTAIHIREGDKLQCSGARVEKNEIGPVGEEYDPEKDGDDPEMSPLGRPLADGVSIACRDSFIRDNTFRDNTDAAIVVYCSPGTLIHA,glycan array binding signal (z-score),Gal(b1-3)Gal,-0.788
same,glycan array binding signal (z-score),Gal(b1-3)Gal(b1-4)GlcNAc,-0.056
same,glycan array binding signal (z-score),Gal(b1-3)GalNAc,0.184
same,glycan array binding signal (z-score),[1],-0.669
same,glycan array binding signal (z-score),[2],-0.559
same,glycan array binding signal (z-score),Gal(b1-3)GalNAc(b1-3)Gal,-0.371
same,glycan array binding signal (z-score),[3],-0.101
same,glycan array binding signal (z-score),[4],-0.346
same,glycan array binding signal (z-score),[5],-0.472
same,glycan array binding signal (z-score),Gal(b1-3)GlcNAc,-0.347
same,glycan array binding signal (z-score),[6],-0.056
same,glycan array binding signal (z-score),[7],-0.458
same,glycan array binding signal (z-score),Gal(b1-3)GlcNAc(b1-2)Man,-0.602
same,glycan array binding signal (z-score),[8],-0.271
same,glycan array binding signal (z-score),[9],-0.175
same,glycan array binding signal (z-score),[10],-0.134
same,glycan array binding signal (z-score),[11],0.441
same,glycan array binding signal (z-score),[12],-0.02
same,glycan array binding signal (z-score),[13],-0.223
same,glycan array binding signal (z-score),[14],-0.457
same,glycan array binding signal (z-score),[15],0.017
same,glycan array binding signal (z-score),[16],2.19
same,glycan array binding signal (z-score),[17],1.8
same,glycan array binding signal (z-score),[18],-0.648
same,glycan array binding signal (z-score),[19],-0.351
same,glycan array binding signal (z-score),[20],-0.568
same,glycan array binding signal (z-score),[21],0.422
same,glycan array binding signal (z-score),[22],-0.683
same,glycan array binding signal (z-score),[23],0.392
same,glycan array binding signal (z-score),[24],0.523
same,glycan array binding signal (z-score),Gal(b1-3)GlcNAc6S,0.283
same,glycan array binding signal (z-score),[25],-0.443
same,glycan array binding signal (z-score),[26],1.16
same,glycan array binding signal (z-score),[27],-0.077
same,glycan array binding signal (z-score),[28],-0.172
same,glycan array binding signal (z-score),[29],-0.513
same,glycan array binding signal (z-score),[30],1.39
same,glycan array binding signal (z-score),[31],-0.141
same,glycan array binding signal (z-score),[32],-0.622
same,glycan array binding signal (z-score),[33],-0.128
same,glycan array binding signal (z-score),[34],-0.426
same,glycan array binding signal (z-score),Gal(b1-4)Gal,0.808
same,glycan array binding signal (z-score),[35],-0.766
same,glycan array binding signal (z-score),[36],-0.344
same,glycan array binding signal (z-score),Gal(b1-4)Glc,-0.276

# 4 consecutive records from above:
binder,measurement,setting,value
Pbx2CASH domain (Cryptococcus neoformans) (protein) GIPGPNRLYRLSGPIIFTAADQEIATYGYPTGSERAVLRVEGRNTATAIQGDCRRCARVSVKNLVVDGNRKKLGRMRDFQLATGLVVLGGNEGQSIQNSWIKNPRGFTAIHIREGDKLQCSGARVEKNEIGPVGEEYDPEKDGDDPEMSPLGRPLADGVSIACRDSFIRDNTFRDNTDAAIVVYCSPGTLIHA,glycan array binding signal (z-score),Gal(b1-3)GlcNAc(b1-2)Man,-0.602
same,glycan array binding signal (z-score),[8],-0.271
same,glycan array binding signal (z-score),[9],-0.175
same,glycan array binding signal (z-score),[10],-0.134
